Source: patent US20200231640A1
Results are given in words; binding and its absence hold for the method and conditions named. In cells and extracts the contact can be indirect. Some binding calls cover weakened binding; strength is not graded here.

Chains of the proteins cited; added tags and fusions are not shown.
UniProt P31946: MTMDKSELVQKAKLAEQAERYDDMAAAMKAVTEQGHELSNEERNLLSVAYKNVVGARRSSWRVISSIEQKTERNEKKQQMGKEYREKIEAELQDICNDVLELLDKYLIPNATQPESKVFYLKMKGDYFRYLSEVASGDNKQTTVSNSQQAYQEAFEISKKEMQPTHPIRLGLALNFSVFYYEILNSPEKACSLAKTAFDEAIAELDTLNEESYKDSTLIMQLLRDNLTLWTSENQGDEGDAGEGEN

Assays:
14-3-3β (human) [1] = molecular target: 14-3-3β (human) (UniProt P31946); test: co-immunoprecipitation, immunoblot
14-3-3β (human) [2] = molecular target: 14-3-3β (human) (UniProt P31946); test: co-immunoprecipitation, immunoblot (FIG. 10C)
14-3-3β (human) [3] = molecular target: 14-3-3β (human) (UniProt P31946); test: co-immunoprecipitation (capture with anti-14-3-3β, immunoblot with anti-Cdc25C)

Measured: binding

B1: Cdc25C (enzyme, human, UniProt P30307 2-473, looked up)
chain: STELFSSTREEGSSGSGPSFRSNQRKMLNLLLERDTSFTVCPDVPRTPVGKFLGDSANLSILSGGTPKRCLDLSNLSSGEITATQLTTSADLDETGHLDSSGLQEVHLAGMNHDQHLMKCSPAQLLCSTPNGLDRGHRKRDAMCSSSANKENDNGNLVDSEMKYLGSPITTVPKLDKNPNLGEDQAEEISDELMEFSLKDQEAKVSRSGLYRSPSMPENLNRPRLKQVEKFKDNTIPDKVKKKYFSGQGKLRKGLCLKKTVSLCDITITQMLEEDSNQGHLIGDFSKVCALPTVSGKHQDLKYVNPETVAALLSGKFQGLIEKFYVIDCRYPYEYLGGHIQGALNLYSQEELFNFFLKKPIVPLDTQKRIIIVFHCEFSSERGPRMCRCLREEDRSLNQYPALYYPELYILKGGYRDFFPEYMELCEPQSYCPMHHQDHKTELLRCRSQSKVQEGERQLREQIALLVKDMSP
binds: all assays above
